# PubChem BioAssay AID743458 – Peter MacCallum Cancer Centre | 2014
# Purpose: 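Retest earlier hits with independent siRNAs per gene for restoring vorinostat sensitivity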 (follow-up of hits)
# Cell system: human HCT116-VR colon cancer cells made resistant to vorinostat
# Reagents: single siRNA or pool against human genes, 25 nM per single siRNA
# Duration: about 72 h after transfection, including 24 h of drug
# Conditions: vorinostat, 2.5 µM final, for 24 h
# Detection: 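Live-cell fluorescent viability and luminescent caspase 3/7 activity after vorinostat treatment, background subtracted, mean of duplicate plates, as fold change over mock-transfected wells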
# Scale: viability relative to mock: higher = more living cells than mock; caspase activity relative to mock: higher = more apoptosis than mock
# Rule for the call: 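Active means a reduced-viability or caspase-activation class, anything else inactive; classes could only be given to wells that looked healthy when left untreated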
# Shown is a random part of about 1,800 reagents. 732 of all reagents (41%) were called active. 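Calls are per siRNA reagent; a gene was deemed confirmed only if most of its four siRNAs scored.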 Reagents against one gene are numbered here.
gene symbol,reagent,viability relative to mock,caspase activity relative to mock,viability hit class,caspase hit class,call
ENDOU,1,1.08,1.46,no change,no change,inactive
ENDOU,2,0.3,2.71,reduced viability,caspase activation,active
ENDOU,3,0.82,0.94,no change,no change,inactive
ENDOU,4,0.94,0.92,no change,no change,inactive
GATA1,1,0.65,4.02,no change,caspase activation,active
GATA1,2,0.68,2.23,no change,no change,inactive
GATA1,3,0.48,4.65,reduced viability,caspase activation,active
GATA1,4,0.71,5.55,no change,caspase activation,active
RNF167,1,1.04,1.84,no change,no change,inactive
RNF167,2,0.94,1.11,no change,no change,inactive
RNF167,3,0.53,4.04,reduced viability,caspase activation,active
RNF167,4,0.77,2.18,no change,no change,inactive
FMC1,1,0.3,3.33,reduced viability,caspase activation,active
FMC1,2,0.24,3.8,no change,no change,inactive
FMC1,3,0.4,3.58,reduced viability,caspase activation,active
FMC1,4,0.94,0.9,no change,no change,inactive
NUP54,1,0.29,4.88,reduced viability,caspase activation,active
NUP54,2,0.64,5.43,no change,caspase activation,active
NUP54,3,0.72,1.88,no change,no change,inactive
NUP54,4,0.73,4.31,no change,caspase activation,active
VMP1,1,0.57,5.88,no change,caspase activation,active
VMP1,2,0.29,3.68,reduced viability,caspase activation,active
VMP1,3,0.8,0.98,no change,no change,inactive
VMP1,4,0.69,0.8,no change,no change,inactive
LMTK3,1,0.9,1.27,no change,no change,inactive
LMTK3,2,0.78,2.17,no change,no change,inactive
LMTK3,3,0.58,2.19,no change,no change,inactive
LMTK3,4,0.86,2.38,no change,no change,inactive
CTIF,1,0.23,1.32,no change,no change,inactive
CTIF,2,0.78,1.69,no change,no change,inactive
CTIF,3,0.88,1.35,no change,no change,inactive
CTIF,4,0.76,1.97,no change,no change,inactive
OR2W5,1,0.47,3.46,reduced viability,caspase activation,active
OR2W5,2,0.77,2.76,no change,caspase activation,active
OR2W5,3,0.53,2.62,reduced viability,caspase activation,active
OR2W5,4,0.72,2.56,no change,no change,inactive
ADTRP,1,0.63,5.37,no change,caspase activation,active
ADTRP,2,0.94,1.47,no change,no change,inactive
ADTRP,3,0.59,3.55,no change,caspase activation,active
ADTRP,4,0.96,1.19,no change,no change,inactive
POLR2D,1,0.14,3.96,reduced viability,caspase activation,active
POLR2D,2,0.4,3.88,reduced viability,caspase activation,active
POLR2D,3,0.26,3.56,reduced viability,caspase activation,active
POLR2D,4,0.52,4,reduced viability,caspase activation,active
ZNF547,1,1.07,1.38,no change,no change,inactive
ZNF547,2,1.02,2.05,no change,no change,inactive
ZNF547,3,0.81,1.04,no change,no change,inactive
ZNF547,4,0.9,2.17,no change,no change,inactive
SNRPA1,1,0.38,1.34,reduced viability,no change,active
SNRPA1,2,0.64,1.41,no change,no change,inactive
SNRPA1,3,0.35,2.53,reduced viability,no change,active
SNRPA1,4,0.4,1.53,reduced viability,no change,active
OR4K5,1,0.74,2.54,no change,no change,inactive
OR4K5,2,0.34,4.78,reduced viability,caspase activation,active
OR4K5,3,0.74,1.75,no change,no change,inactive
OR4K5,4,0.84,1.27,no change,no change,inactive
REM2,1,0.18,2.44,no change,no change,inactive
REM2,2,0.8,1.33,no change,no change,inactive
REM2,3,0.76,2.15,no change,no change,inactive
REM2,4,0.86,0.86,no change,no change,inactive

Single entries from above:
Under “call”, GATA1 #1 shows active
Result of OR2W5 #3 under “call”: active
Entry of POLR2D #1 under “call”: active
For “viability hit class”, NUP54 #1 is entered as reduced viability
For “caspase activity relative to mock”, ADTRP #3 is entered as 3.55
Entry for NUP54 #4 in “viability hit class”: no change
